{
  "source": "paper PMC11671014",
  "about": "(PLOS Pathogens, 2024)",
  "test_system": "Dd2-B2 parasites",
  "test": "Minimum inoculum of resistance (MIR) selection",
  "assay_type": "cell-based, Plasmodium falciparum",
  "conditions": "for Minimum Inoculum for Resistance (MIR): Dd2-B2, ML901 at 3 x IC50, ML471 and DSM265 at 10 x IC50",
  "experimental": "MIR studies were conducted for ML901 and ML471 using a modified “Gate keeper assay” [34]. […] For ML901, the parasites (starting parasite inoculums of 1x10^7 or 1x10^8 in triplicate) were subjected to pressure at 3 x IC50, with recrudescence on days 12–14. […] The different pressure regimens reflect the standard protocols in the Fidock lab used at the times of analysis. Wells were monitored daily by smear during the first seven days to ensure parasite clearance, during which media was changed daily. Thereafter, cultures were screened three times weekly by flow cytometry and smearing, and the selection maintained a consistent drug pressure over 60 days. […] Whole-genome sequencing analysis identified CNVs in chromosome 8 segments, always containing the PfTyrRS locus, consistent with our earlier evidence of this as the target of ML901 [16]. Single nucleotide polymorphism (SNP) filtering was lowered to 0.5 allelic balance (AB) but yielded no point mutations in the core genome.",
  "note": "Where “and” joins values, the source holds several entries; their conditions need not be identical. Identical values can stand only once. The amount applied is not stated for every result.",
  "data": [
    {"smiles": "CC(C)c1nn([C@@H]2O[C@H](COS(N)(=O)=O)[C@@H](O)[C@H]2O)c2ncnc(N)c12", "note": "[ML471, ((2R,3S,4R,5R)-5-(4-amino-3-isopropyl-1H-pyrazolo[3,4-d]pyrimidin-1-yl)-3,4-dihydroxytetrahydrofuran-2-yl)methyl sulfamate]", "values": [
      {"measurement": "Minimum Inoculum for Resistance (MIR)", "value": "7.1 x10^5"},
      {"measurement": "Day of recrudescence", "setting": "selection with 2x10^5 parasites per well, 10 x IC50", "value": "18 (29/96 wells) day"}
    ]},
    {"smiles": "Nc1ncnc2c1c(OC(F)F)nn2[C@@H]1O[C@H](COS(N)(=O)=O)[C@@H](O)[C@H]1O", "note": "[ML901]", "values": [
      {"measurement": "Minimum Inoculum for Resistance (MIR)", "value": "< 10^7 and 10^7"},
      {"measurement": "Day of recrudescence", "setting": "selection with 10^7 parasites, 3 x IC50 (flasks in brackets)", "value": "12 (1/3), 14 (2/3) day"},
      {"measurement": "Day of recrudescence", "setting": "selection with 10^8 parasites, 3 x IC50 (flasks in brackets)", "value": "14 (3/3) day"}
    ]}
  ]
}
